PubChem BioAssay AID686943, Drosophila RNAi Screening Center – 2013
In all, the deposit lists about 23,000 reagents; shown is an unselected part of those with a known target gene and a result. 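Extra replicates exist only for a retested subset of genes; insulin dose and duration not given; both raised and lowered dpERK matter.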 A plus sign joins genes that one reagent is predicted to hit. Further read-outs or replicates are left out here. The record does not give: the amount of reagent, the time to read-out.

Purpose: 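Fly genes whose loss alters ERK activation after insulin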 (primary screen)
Cell system: Drosophila S2R+ haemocyte-like cells expressing YFP-tagged ERK (Rolled)
Reagents: long dsRNA against Drosophila genes
Challenge: insulin stimulation versus unstimulated cells; dose and duration not given
Read-out: 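Antibody staining for doubly phosphorylated ERK divided by ERK-YFP signal, as plate z-scores, in insulin-treated and untreated cells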
Reading the numbers: replicate 1, z-score of dpERK with insulin and replicate 2, z-score of dpERK with insulin: higher = more active ERK per ERK-YFP after insulin

The first 4 records, to show the layout:
CG11379 [DRSC18629]: replicate 1, z-score of dpERK with insulin = -0.44; replicate 2, z-score of dpERK with insulin = 0.37
CG30065 [DRSC05420]: replicate 1, z-score of dpERK with insulin = -0.49; replicate 2, z-score of dpERK with insulin = -0.05
gkt (glaikit) [DRSC00821]: replicate 1, z-score of dpERK with insulin = 0.3; replicate 2, z-score of dpERK with insulin = 0.47
Cyt-c1L (Cytochrome c1-like) [DRSC14860]: replicate 1, z-score of dpERK with insulin = 0.4; replicate 2, z-score of dpERK with insulin = 0.1

The listing, from the start:
CG11379 [DRSC18629]: replicate 1, z-score of dpERK with insulin = -0.44; replicate 2, z-score of dpERK with insulin = 0.37
CG30065 [DRSC05420]: replicate 1, z-score of dpERK with insulin = -0.49; replicate 2, z-score of dpERK with insulin = -0.05
gkt (glaikit) [DRSC00821]: replicate 1, z-score of dpERK with insulin = 0.3; replicate 2, z-score of dpERK with insulin = 0.47
Cyt-c1L (Cytochrome c1-like) [DRSC14860]: replicate 1, z-score of dpERK with insulin = 0.4; replicate 2, z-score of dpERK with insulin = 0.1
Cyt-c1L (Cytochrome c1-like) [DRSC22096]: replicate 1, z-score of dpERK with insulin = -0.27; replicate 2, z-score of dpERK with insulin = 1.08
CG7131 [DRSC16203]: replicate 1, z-score of dpERK with insulin = -0.04; replicate 2, z-score of dpERK with insulin = -0.61
Picot [DRSC07508]: replicate 1, z-score of dpERK with insulin = 1.23; replicate 2, z-score of dpERK with insulin = 1.92
CG14621 [DRSC20635]: replicate 1, z-score of dpERK with insulin = 0.33; replicate 2, z-score of dpERK with insulin = 0.01
shop (shopper) [DRSC20030]: replicate 1, z-score of dpERK with insulin = 0.19; replicate 2, z-score of dpERK with insulin = -0.35
grau (grauzone) [DRSC04691]: replicate 1, z-score of dpERK with insulin = -0.81; replicate 2, z-score of dpERK with insulin = -1.03
lectin-46Cb [DRSC06611]: replicate 1, z-score of dpERK with insulin = 0.75; replicate 2, z-score of dpERK with insulin = 0.4
Sec71 (Secretory 71) [DRSC01893]: replicate 1, z-score of dpERK with insulin = -0.01; replicate 2, z-score of dpERK with insulin = 1.76
r + CG13012 [DRSC19531]: replicate 1, z-score of dpERK with insulin = -0.35; replicate 2, z-score of dpERK with insulin = -0.31
eya (eyes absent) [DRSC03510]: replicate 1, z-score of dpERK with insulin = -0.83; replicate 2, z-score of dpERK with insulin = 0.81
Srp19 (Signal recognition particle 19) [DRSC11288]: replicate 1, z-score of dpERK with insulin = 1.48; replicate 2, z-score of dpERK with insulin = 1.08
Atg17 (Autophagy-related 17) [DRSC12221]: replicate 1, z-score of dpERK with insulin = 0.36; replicate 2, z-score of dpERK with insulin = 0.54
CG9672 [DRSC20201]: replicate 1, z-score of dpERK with insulin = 0.72; replicate 2, z-score of dpERK with insulin = 0.07
CG14866 [DRSC14989]: replicate 1, z-score of dpERK with insulin = 1.08; replicate 2, z-score of dpERK with insulin = -1.8
CG8565 [DRSC20112]: replicate 1, z-score of dpERK with insulin = 0.33; replicate 2, z-score of dpERK with insulin = 0.66
eIF4H2 (eukaryotic translation initiation factor 4H2) [DRSC14582]: replicate 1, z-score of dpERK with insulin = 0.33; replicate 2, z-score of dpERK with insulin = -0.32
Tmem43 (Transmembrane protein 43) [DRSC10964]: replicate 1, z-score of dpERK with insulin = -0.81; replicate 2, z-score of dpERK with insulin = -1.02
slif (slimfast) [DRSC11635]: replicate 1, z-score of dpERK with insulin = -0.15; replicate 2, z-score of dpERK with insulin = 0.08
CG30393 [DRSC04253]: replicate 1, z-score of dpERK with insulin = 0.79; replicate 2, z-score of dpERK with insulin = -1.27
cDIP (Common Dpr-interacting protein) [DRSC14267]: replicate 1, z-score of dpERK with insulin = 0.27; replicate 2, z-score of dpERK with insulin = -1.17
Ebp (Ejaculatory bulb protein) [DRSC04048]: replicate 1, z-score of dpERK with insulin = 0.25; replicate 2, z-score of dpERK with insulin = -0.21
CG2924 [DRSC18525]: replicate 1, z-score of dpERK with insulin = 0.63; replicate 2, z-score of dpERK with insulin = -0.24
CG30001 [DRSC05191]: replicate 1, z-score of dpERK with insulin = -0.17; replicate 2, z-score of dpERK with insulin = -0.52
Nuak (Nuak family kinase) [DRSC14414]: replicate 1, z-score of dpERK with insulin = 0.39; replicate 2, z-score of dpERK with insulin = 0.05
Nuak (Nuak family kinase) [DRSC14415]: replicate 1, z-score of dpERK with insulin = 0.13; replicate 2, z-score of dpERK with insulin = 0.37
Nuak (Nuak family kinase) [DRSC14416]: replicate 1, z-score of dpERK with insulin = 0.76; replicate 2, z-score of dpERK with insulin = 1.23
fus (fusilli) [DRSC05569]: replicate 1, z-score of dpERK with insulin = 1.7; replicate 2, z-score of dpERK with insulin = 0.19
fus (fusilli) [DRSC07107]: replicate 1, z-score of dpERK with insulin = -0.33; replicate 2, z-score of dpERK with insulin = 0.22
